The values below come from article PMC3031510.

Amino acid sequences for entries named in this document (tags omitted). A change or cut given only in a name is not applied to a line headed by its entry. Residues count along the entry.
UniProt P21127, residues 357-795: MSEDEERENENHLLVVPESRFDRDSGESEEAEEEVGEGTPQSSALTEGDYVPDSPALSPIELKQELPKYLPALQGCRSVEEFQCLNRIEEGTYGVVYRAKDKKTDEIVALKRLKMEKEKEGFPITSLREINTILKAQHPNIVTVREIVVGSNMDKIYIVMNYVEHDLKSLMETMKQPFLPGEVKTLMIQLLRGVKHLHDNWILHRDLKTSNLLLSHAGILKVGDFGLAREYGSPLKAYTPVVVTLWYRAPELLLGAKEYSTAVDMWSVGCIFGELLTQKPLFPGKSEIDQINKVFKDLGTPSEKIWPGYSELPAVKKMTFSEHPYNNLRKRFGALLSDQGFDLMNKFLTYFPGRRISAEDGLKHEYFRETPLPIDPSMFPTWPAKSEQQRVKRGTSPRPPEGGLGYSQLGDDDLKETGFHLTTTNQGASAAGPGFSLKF

Results are given in words; binding and its absence hold for the method and conditions named. For part of these data: Binding seen in cells or lysates may run through a third protein. Some binding calls cover weakened binding; strength is not graded here. Where a sequence is shown, tags or fusion partners need not be part of it.

Experiment [1] concerns the target T1, Myc-Plk4-FL (Myc-tagged Plk4 full length) (UniProt O00444).
T1 sequence: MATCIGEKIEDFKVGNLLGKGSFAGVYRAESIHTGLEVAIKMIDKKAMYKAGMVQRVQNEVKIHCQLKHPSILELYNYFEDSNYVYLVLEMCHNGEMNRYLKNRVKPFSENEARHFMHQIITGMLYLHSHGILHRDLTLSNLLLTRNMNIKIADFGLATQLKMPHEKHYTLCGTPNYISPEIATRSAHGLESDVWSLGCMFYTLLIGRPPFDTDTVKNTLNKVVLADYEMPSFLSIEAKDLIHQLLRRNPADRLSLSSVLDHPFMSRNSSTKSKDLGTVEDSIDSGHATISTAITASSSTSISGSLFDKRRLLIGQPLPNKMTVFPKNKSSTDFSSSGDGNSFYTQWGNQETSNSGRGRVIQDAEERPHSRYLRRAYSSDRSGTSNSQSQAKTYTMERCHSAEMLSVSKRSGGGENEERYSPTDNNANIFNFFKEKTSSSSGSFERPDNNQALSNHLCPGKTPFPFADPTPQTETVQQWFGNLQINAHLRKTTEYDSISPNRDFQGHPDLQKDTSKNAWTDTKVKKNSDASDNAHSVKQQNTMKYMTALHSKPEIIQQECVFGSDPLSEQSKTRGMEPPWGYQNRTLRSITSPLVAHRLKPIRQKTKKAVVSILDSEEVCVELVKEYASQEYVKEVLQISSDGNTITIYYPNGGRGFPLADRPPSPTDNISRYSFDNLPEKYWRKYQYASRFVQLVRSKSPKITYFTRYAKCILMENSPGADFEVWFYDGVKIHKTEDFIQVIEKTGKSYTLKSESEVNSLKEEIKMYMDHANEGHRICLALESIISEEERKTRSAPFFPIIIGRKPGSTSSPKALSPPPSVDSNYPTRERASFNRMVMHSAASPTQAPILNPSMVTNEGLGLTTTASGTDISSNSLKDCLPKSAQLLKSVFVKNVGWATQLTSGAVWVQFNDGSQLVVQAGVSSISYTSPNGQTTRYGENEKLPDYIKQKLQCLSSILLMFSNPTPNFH
Put plainly: co-IP; COS-7 cells co-expressing the tagged proteins; lysis buffer 50mM HEPES, 100mM KCl, 0,5% NP40; immunoprecipitation with anti-Myc antibody on Dynabeads protein A, 3 hours; Western blot. (In general: In western blotting, separated proteins are transferred to a membrane and probed.)

Another experiment has as its target GFP-CDK11^p58 (UniProt P21127). Description: co-IP; COS-7 cells co-expressing the tagged proteins; lysis buffer 50mM HEPES, 100mM KCl, 0,5% NP40; immunoprecipitation with anti-GFP antibody on Dynabeads protein A, 3 hours; Western blot.
In experiment [2] the target is MBP-CDK11^p58 (Maltose-Binding Protein-tagged CDK11^p58) (UniProt P21127). Put plainly: pull-down; 10µg MBP-CDK11^p58 immobilised on amylose, incubated with 5µg purified Plk4-V5-(His)6 in PBS, 0,1% triton X-100, 0,1% NP40, 1h at 4°C; 3 washes; anti-V5 Western blot; both purified.

“GFP-CDK11^p58 (from UniProt P21127-12 1-439) (enzyme)”: the binding entry in experiment [1] is “binds”.

B1: Myc-Plk4-FL (Myc-tagged Plk4 full length) (enzyme, UniProt O00444 1-970)
chain: MATCIGEKIEDFKVGNLLGKGSFAGVYRAESIHTGLEVAIKMIDKKAMYKAGMVQRVQNEVKIHCQLKHPSILELYNYFEDSNYVYLVLEMCHNGEMNRYLKNRVKPFSENEARHFMHQIITGMLYLHSHGILHRDLTLSNLLLTRNMNIKIADFGLATQLKMPHEKHYTLCGTPNYISPEIATRSAHGLESDVWSLGCMFYTLLIGRPPFDTDTVKNTLNKVVLADYEMPSFLSIEAKDLIHQLLRRNPADRLSLSSVLDHPFMSRNSSTKSKDLGTVEDSIDSGHATISTAITASSSTSISGSLFDKRRLLIGQPLPNKMTVFPKNKSSTDFSSSGDGNSFYTQWGNQETSNSGRGRVIQDAEERPHSRYLRRAYSSDRSGTSNSQSQAKTYTMERCHSAEMLSVSKRSGGGENEERYSPTDNNANIFNFFKEKTSSSSGSFERPDNNQALSNHLCPGKTPFPFADPTPQTETVQQWFGNLQINAHLRKTTEYDSISPNRDFQGHPDLQKDTSKNAWTDTKVKKNSDASDNAHSVKQQNTMKYMTALHSKPEIIQQECVFGSDPLSEQSKTRGMEPPWGYQNRTLRSITSPLVAHRLKPIRQKTKKAVVSILDSEEVCVELVKEYASQEYVKEVLQISSDGNTITIYYPNGGRGFPLADRPPSPTDNISRYSFDNLPEKYWRKYQYASRFVQLVRSKSPKITYFTRYAKCILMENSPGADFEVWFYDGVKIHKTEDFIQVIEKTGKSYTLKSESEVNSLKEEIKMYMDHANEGHRICLALESIISEEERKTRSAPFFPIIIGRKPGSTSSPKALSPPPSVDSNYPTRERASFNRMVMHSAASPTQAPILNPSMVTNEGLGLTTTASGTDISSNSLKDCLPKSAQLLKSVFVKNVGWATQLTSGAVWVQFNDGSQLVVQAGVSSISYTSPNGQTTRYGENEKLPDYIKQKLQCLSSILLMFSNPTPNFH
Regarding B1, the binding result with GFP-CDK11^p58 is “binds”.

B2: Plk4-V5-(His)6 (enzyme, UniProt O00444 1-970)
chain: MATCIGEKIEDFKVGNLLGKGSFAGVYRAESIHTGLEVAIKMIDKKAMYKAGMVQRVQNEVKIHCQLKHPSILELYNYFEDSNYVYLVLEMCHNGEMNRYLKNRVKPFSENEARHFMHQIITGMLYLHSHGILHRDLTLSNLLLTRNMNIKIADFGLATQLKMPHEKHYTLCGTPNYISPEIATRSAHGLESDVWSLGCMFYTLLIGRPPFDTDTVKNTLNKVVLADYEMPSFLSIEAKDLIHQLLRRNPADRLSLSSVLDHPFMSRNSSTKSKDLGTVEDSIDSGHATISTAITASSSTSISGSLFDKRRLLIGQPLPNKMTVFPKNKSSTDFSSSGDGNSFYTQWGNQETSNSGRGRVIQDAEERPHSRYLRRAYSSDRSGTSNSQSQAKTYTMERCHSAEMLSVSKRSGGGENEERYSPTDNNANIFNFFKEKTSSSSGSFERPDNNQALSNHLCPGKTPFPFADPTPQTETVQQWFGNLQINAHLRKTTEYDSISPNRDFQGHPDLQKDTSKNAWTDTKVKKNSDASDNAHSVKQQNTMKYMTALHSKPEIIQQECVFGSDPLSEQSKTRGMEPPWGYQNRTLRSITSPLVAHRLKPIRQKTKKAVVSILDSEEVCVELVKEYASQEYVKEVLQISSDGNTITIYYPNGGRGFPLADRPPSPTDNISRYSFDNLPEKYWRKYQYASRFVQLVRSKSPKITYFTRYAKCILMENSPGADFEVWFYDGVKIHKTEDFIQVIEKTGKSYTLKSESEVNSLKEEIKMYMDHANEGHRICLALESIISEEERKTRSAPFFPIIIGRKPGSTSSPKALSPPPSVDSNYPTRERASFNRMVMHSAASPTQAPILNPSMVTNEGLGLTTTASGTDISSNSLKDCLPKSAQLLKSVFVKNVGWATQLTSGAVWVQFNDGSQLVVQAGVSSISYTSPNGQTTRYGENEKLPDYIKQKLQCLSSILLMFSNPTPNFH
On to B2, for which the binding result in experiment [2] is “binds”.
